Data reported in PubChem BioAssay AID624297 (National Center for Advancing Translational Sciences (NCATS), 2012).
About 6,200 (1.8%) of roughly 340,000 compounds were called active. This list was built around the results that the source calls inconclusive (neither active nor inactive); the mix of calls is not that of the screen. Calls come from the whole dose curve; as a rule, active = well fitted activation curve with a large enough effect; inconclusive = small, poorly fitted or top-dose-only effect; inactive = no such curve, though single readings can be large or run the other way. A potency beside an inconclusive call is a rough fit, not a confirmed value.

assay: A quantitative high throughput screen for small molecules that induce DNA re-replication in SW480 colon adenocarcinoma cells.; note: nearly all actives have a fitted effect of over 55% in size; details: Hoechst DNA content imaging, 48 h; series mostly up to 46.1 µM
How it was run: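 Compounds, transferred as 23 nL by pin tool, were incubated with cells for 48 hr; DNA content per nucleus was then quantified by Hoechst staining and fluorescence plate imaging.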
Potency is the fitted concentration of half-maximal effect.

Structure (SMILES) | Potency
CCOC(=O)c1c(CC(C)C)csc1/N=C/C1C(=O)CCCC1=O | active: 16.4 µM
COc1ccc(OC)c(S(=O)(=O)N2CCC3(CC2)OCCN3S(=O)(=O)c2ccccc2)c1 | inconclusive: 29.1 µM [activator, single point]
CC(C)Oc1ccc(CNCCC2(C(C)C)CCOC(C)(C)C2)cc1 (stereo not drawn) | inconclusive: 29.1 µM [activator, single point]
COc1ccccc1C(=O)NC(CCSC)C(=O)N1CCN(C/C=C/c2ccccc2)CC1 (stereo not drawn) | inconclusive: 20.6 µM [activator, partial curve, poor fit]
CCN(CC)c1ccc(/C=N/NC(=O)c2c(Cl)cnn2C)c(O)c1 | inconclusive: 0.731 µM [activator, full curve]
COCOc1cc(O)c(C(=O)/C=C/c2ccccc2)c(OCOC)c1 | inconclusive: 32.6 µM [activator, partial curve, poor fit]
O=C(CCN1CCOCC1)Nc1cc(C(=O)Nc2ccccc2F)ccc1N1CC2CC(C1)c1cccc(=O)n1C2 (stereo not drawn) | inactive
FC(F)(F)c1cnc(Sc2nc3nccc(-c4ccc(Cl)cc4)n3n2)c(Cl)c1 | active: 16.4 µM
CCOC(=O)CSc1n[nH]c(-c2cccnc2)n1 | inactive
CCn1c2ccccc2c2cc(/C=N/NC(=O)c3ccc(O)cc3)ccc21 | inconclusive: 20.6 µM [activator, single point]
O=C(O)/C=C/C(=O)Nc1nc(-c2ccc3ccccc3c2)cs1 | inactive
CN1CCN(C(=O)c2ccc(Cn3cc(Cl)cn3)o2)CC1 | inconclusive: 14.6 µM [activator, partial curve, poor fit]
O=C(NCCc1nc2ccccc2[nH]1)/C(=C/c1ccc2c(c1)OCO2)NC(=O)c1ccccc1Cl | inactive
CCOC(=O)c1sc(-c2ccc(Br)cc2)cc1N | inconclusive: 29.1 µM [activator, partial curve, poor fit]
COc1ccc(NC(=O)C2CCN(C(=O)c3cccs3)CC2)c(OC)c1 | inconclusive: 29.1 µM [activator, single point]
O=C(CSc1nnc(NC(=O)C2CC(=O)N(c3ccc(F)cc3)C2)s1)NCC1CCCO1 (stereo not drawn) | inactive
CC(C)CN=c1cc(-c2ccccc2)oc2ccc(Cl)cc12 | inconclusive: 20.6 µM [activator, single point]
O=C(CCCN1C(=O)/C(=C\c2cccs2)SC1=S)Nc1ccc(O)cc1 | active: 20.6 µM
O=C(Nc1cc(Cl)ccc1Oc1ccccc1)c1ccc(F)cc1 | inconclusive: 0.116 µM [activator, full curve, poor fit]
Cc1ccc(-c2cccc(-c3cc(=O)oc4ccc(C(C)(C)C)cc34)c2)cc1 | inactive
NNC(=O)c1[nH]c2ccc(Cl)cc2c1-c1ccccc1 | inconclusive: 29.1 µM [activator, single point]
Cc1ccc(S(=O)(=O)NC(C)(C)CN2CCC(Cc3ccccc3)CC2)cc1 | inconclusive: 18.4 µM [activator, single point]
CCC(=O)c1cc(-c2nc3ccccc3n2C)n(C)c1 | inactive
CCCc1nnc(SCC(=O)Nc2nnc(CC)s2)n1CC1CCCO1 (stereo not drawn) | inactive
O=C(NCc1ccc(Cl)cc1)c1ccncc1 | inconclusive: 23.1 µM [activator, single point]

Structure (SMILES) | Potency
CC(/C=N/NC(=O)CN1CCN(Cc2ccc(Cl)cc2)CC1)=C\c1ccco1 | inconclusive: 5.17 µM [activator, full curve, poor fit]
CCOc1cc(/C=N/Nc2cc(C)nc3ccc(C)cc23)ccc1O | inconclusive: 32.6 µM [activator, partial curve, poor fit]
COc1ccc(Cc2nnc(NC(=O)C3CC(=O)N(c4ccccc4)C3)s2)cc1OC (stereo not drawn) | inactive
Cc1ccc2c(c1)[C@H]1[C@H](CO2)[C@H](c2ccccc2)[C@]2(C)C(=O)Nc3cc(F)c(F)cc3C(=O)N12 | active: 23.1 µM
O=C(O)Cc1n[nH]c(=O)c2ccccc12 | inconclusive: 0.259 µM [activator, partial curve, poor fit]
CN(c1cccc(NC(=O)c2ccc(C(C)(C)C)cc2)c1)S(C)(=O)=O | inconclusive: 29.1 µM [activator, single point]
COC(=O)CSc1nnc(CCc2ccccc2)n1C | inactive
CN(C)CCCn1c(N)c(C#N)c2nc3ccccc3nc21 | active: 18.4 µM
CCOC(=O)C1=C(C)NC2=C(C(=O)CC(c3cccs3)C2)C1c1cccs1 (stereo not drawn) | inconclusive: 18.4 µM [activator, single point]
COc1ccc(-c2nnc(Nc3nc4c(OC)cccc4s3)o2)cc1 | inconclusive: 29.1 µM [activator, single point]
CC(=O)c1cccc(S(=O)(=O)N2CCCC(c3nc4c(nnn4Cc4cccc(Cl)c4)c(=O)[nH]3)C2)c1 (stereo not drawn) | inactive
CC(C)c1ccc(/C=C/C(=O)N2CCOCC2)cc1 | inactive
CCOC(=O)Cc1c(C)nc2c(-c3ccc(Cl)cc3)c(C)nn2c1C | inconclusive: 2.59 µM [activator, full curve, poor fit]
CCCCn1nc(NC(=O)COC)c2cc3cc(OC)ccc3nc21 | active: 14.6 µM
CC1CN(C(=O)Cn2cc(S(=O)(=O)CC(=O)N3CCOCC3)c3ccccc32)CC(C)O1 (stereo not drawn) | inconclusive: 2.91 µM [activator, full curve, poor fit]
CCc1c(C(=O)N/N=C/c2ccc(OCc3ccc(F)cc3)c(OC)c2)nnn1-c1nonc1N | inconclusive: 29.1 µM [activator, single point]
C/C(=N/NC(=O)CNC(=O)c1cccs1)c1ccc(Cl)cc1 | inconclusive: 25.9 µM [activator, partial curve, poor fit]
CCCCSc1nc(N)nc2c1ncn2C1OC(CO)C(O)C1O (stereo not drawn) | inconclusive: 29.1 µM [activator, single point]
Cc1ccc(-c2c[n+](CC(=O)OCc3ccccc3)c3n2CCC3)cc1 | active: 9.2 µM
O=C(O)CCSc1ncnc2sc(-c3ccccc3)cc12 | inactive
Cc1cc(-c2n[nH]c(=S)o2)c(C)n1-c1ccccc1 | inactive
COc1cc(/C=N\NC(=O)CN2CCOCC2)ccc1OCC(=O)Nc1ccc(C)c(C)c1 | inactive
Cn1cc(C(=O)c2cccc(Cl)c2)cc1C#N | inactive
COc1ccc(C2=CC(=O)C[C@H](c3ccc(F)cc3)C2)c(OC)c1 | inconclusive: 18.4 µM [activator, partial curve, poor fit]
O=S1(=O)c2ccccc2OC(COCc2ccccc2)CN1C1CC1 (stereo not drawn) | inconclusive: 4.11 µM [activator, partial curve, poor fit]

Looked up one by one from above (3):
Structure (SMILES) | Potency
CN(c1cccc(NC(=O)c2ccc(C(C)(C)C)cc2)c1)S(C)(=O)=O | inconclusive: 29.1 µM [activator, single point]
O=C(Nc1cc(Cl)ccc1Oc1ccccc1)c1ccc(F)cc1 | inconclusive: 0.116 µM [activator, full curve, poor fit]
CCc1c(C(=O)N/N=C/c2ccc(OCc3ccc(F)cc3)c(OC)c2)nnn1-c1nonc1N | inconclusive: 29.1 µM [activator, single point]

Later entries.

Structure (SMILES) | Potency
COc1ccc(OC)c(C(c2nnnn2CC2CCCO2)N2CCN(C3CCCC3)CC2)c1 (stereo not drawn) | inconclusive: 0.231 µM [activator, full curve, poor fit]
CCCCNc1c(-c2ccc(SC(C)CC)cc2)nc2ccccn12 (stereo not drawn) | inconclusive: 16.4 µM [activator, single point]
Cc1ccc(C(=O)Cc2ccccc2)c(O)c1 | inactive
COC(=O)c1ccc(CSc2nc3c(c(=O)n2-c2ccc(F)cc2)SCC3)o1 | inconclusive: 20.6 µM [activator, single point]
Cc1cc(OCCN2CC(C)OC(C)C2)ccc1[N+](=O)[O-] (stereo not drawn) | inactive
Cc1ccccc1Cn1cc(NC(=O)c2cc(C3CC3)on2)cn1 | inactive
CCCCn1c(N)c(N(CCOC)C(=O)C2CCN(S(=O)(=O)c3ccccc3)CC2)c(=O)[nH]c1=O | inconclusive: 18.4 µM [activator, single point]
COc1ccc2c(c1)OC/C(=C/c1cccs1)C2=O | inactive
O=C(C=Cc1cccc(O)c1)c1ccccc1O | inconclusive: 23.1 µM [activator, single point]
Cc1ccc(C)c(NC(=O)COc2coc(CN3CCc4ccccc4C3)cc2=O)c1 | inactive
CCOC(=O)c1c(NC(=O)COc2ncnc3ccccc23)sc(C)c1CC | inactive
CC12CCC(C(=O)Nc3cc(Cl)ccc3Cl)(C(Br)C1=O)C2(C)C (stereo not drawn) | inconclusive: 7.31 µM [activator, partial curve, poor fit]
CCN=c1scc(-c2ccccc2)n1/N=C/c1ccccn1 | inactive
COc1ccc(-c2ccc([C@H]3[C@H]4C=CC[C@@H](C)[C@@H]4C(=O)N3Cc3ccccc3)c(F)c2)cc1 | inconclusive: 3.66 µM [activator, full curve, poor fit]
CN1CCN2c3ncccc3Cc3ccccc3C2C1 (stereo not drawn) | inconclusive: 31.6 µM [activator, single point]
CCc1nnc(N/N=C/c2ccccc2F)n1N | inconclusive: 23.1 µM [activator, partial curve, poor fit]
COCCN(CCOC)S(=O)(=O)c1ccc(C(=O)Nc2ccncc2)cc1 | inactive
CCOC(=O)C1=C(N)Oc2c(c(=O)[nH]c3ccccc23)C1c1ccccc1 (stereo not drawn) | inactive
O=C(CSc1nc2c(cnn2-c2ccc(F)cc2)c(=O)[nH]1)N1CCOCC1 | inactive
CCOC(=O)C1(Cc2ccccc2)CCN(Cc2cnn(C(C)C)c2)CC1 | inactive
CCN1C(=O)c2ccccc2Sc2ccc(C(=O)NCCC(C)C)cc21 | inconclusive: 29.1 µM [activator, single point]
CC1(C)CC(NS(=O)(=O)c2ccc3ccccc3c2)CC(C)(C)N1 | inconclusive: 29.1 µM [activator, single point]
COc1ccc(NS(=O)(=O)c2ccc(-n3cnnn3)cc2)cc1OC | inconclusive: 18.4 µM [activator, single point]
